Measured values taken from publication PMC6039501.
No constants are given. Whether binding was seen depends on the method and setting. Binding seen in cells or lysates may run through a third protein. Some entries that bind do so weakly or less than the wild type. Where a sequence is shown, tags or fusion partners need not be part of it. Blank lines part the entries; values can stand above or below the molecule they belong to.

Protein sequences, listed by entry. Tags and fused reporters are not part of them. Lines headed by an entry give the natural chain unless they say otherwise; changes in a name come on top. Residues count along the entry.
UniProt O15524: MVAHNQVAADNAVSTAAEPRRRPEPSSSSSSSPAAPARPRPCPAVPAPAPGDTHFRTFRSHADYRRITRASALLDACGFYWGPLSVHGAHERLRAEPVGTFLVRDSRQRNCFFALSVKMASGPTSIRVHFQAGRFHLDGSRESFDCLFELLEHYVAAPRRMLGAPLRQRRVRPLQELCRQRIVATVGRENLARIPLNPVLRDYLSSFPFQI
GST-SOCS1 SH2 domain: residues 79-174 of O15524
UniProt Q15369: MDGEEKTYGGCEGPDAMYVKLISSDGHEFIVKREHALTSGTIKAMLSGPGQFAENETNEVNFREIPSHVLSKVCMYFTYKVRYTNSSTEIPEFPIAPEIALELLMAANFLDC

Tests used:
GST-CUEDC2 CUE domain = biological target: T1, GST-CUEDC2 CUE domain (UniProt Q9H467); experiment: pull-down; GST, GST-CUEDC2 or its truncated fusion proteins bound to GST beads, incubated with lysate of KG-1 cells transfected with Myc-SOCS1; binding buffer with protease inhibitors, 4 °C, 6 h; anti-Myc immunoblot; only the target purified
T1 sequence: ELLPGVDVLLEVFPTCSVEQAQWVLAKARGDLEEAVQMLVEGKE

[1] = biological target: T2, GST-CUEDC2 (full-length CUEDC2 protein) (UniProt Q9H467); experiment: as above
T2 sequence: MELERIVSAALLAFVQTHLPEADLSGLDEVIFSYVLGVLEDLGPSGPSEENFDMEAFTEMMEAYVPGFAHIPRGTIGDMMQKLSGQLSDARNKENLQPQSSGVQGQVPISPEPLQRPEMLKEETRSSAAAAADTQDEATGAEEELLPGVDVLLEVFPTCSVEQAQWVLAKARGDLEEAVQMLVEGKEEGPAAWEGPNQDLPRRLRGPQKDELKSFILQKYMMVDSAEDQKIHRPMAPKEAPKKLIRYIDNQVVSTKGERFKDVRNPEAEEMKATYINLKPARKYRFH

[2] = biological target: T3, Flag-CUEDC2 (in KG-1 cells) (UniProt Q9H467); experiment: co-IP; KG-1 cells transfected with Flag-CUEDC2 and Myc-SOCS1; whole cell lysates immunoprecipitated with anti-Myc or anti-Flag monoclonal antibody, blotted with the other
T3 sequence: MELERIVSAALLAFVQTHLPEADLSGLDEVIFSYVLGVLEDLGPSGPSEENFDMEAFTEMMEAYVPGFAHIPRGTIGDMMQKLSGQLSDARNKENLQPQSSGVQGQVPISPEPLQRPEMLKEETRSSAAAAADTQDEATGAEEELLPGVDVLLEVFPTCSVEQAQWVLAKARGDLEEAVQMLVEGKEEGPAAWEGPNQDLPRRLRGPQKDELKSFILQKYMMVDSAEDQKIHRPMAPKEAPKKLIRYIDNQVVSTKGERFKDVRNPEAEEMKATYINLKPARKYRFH

GST-SOCS1 SH2 domain = GST-SOCS1 SH2 domain (UniProt O15524); experiment: pull-down; purified GST, GST-SOCS1 or truncated GST-SOCS1 fusion proteins incubated with lysate of KG-1 cells transiently transfected with Flag-CUEDC2; anti-Flag immunoblot; only the target purified
[3] = biological target: GST-SOCS1 (full-length SOCS1 protein) (UniProt O15524); experiment: as above
[4] = biological target: Myc-SOCS1 (suppressor of cytokine signalling-1) (UniProt O15524); experiment: co-IP; KG-1 cells transfected with Flag-CUEDC2 and Myc-SOCS1; whole cell lysates immunoprecipitated with anti-Myc or anti-Flag monoclonal antibody, blotted with the other
[5] = biological target: GST-Elongin C fusion protein (UniProt Q15369); experiment: pull-down; purified GST or GST-Elongin C incubated with lysates of HEK293T cells cotransfected with HA-SOCS1, with Flag-CUEDC2 or Flag vector, with or without Myc-CUL2; inputs normalised; anti-Flag, anti-HA and anti-Myc immunoblots; only the target purified

binding (GST-CUEDC2 CUE domain): binds | binding [1]: binds | binding [2]: binds
Molecule: Myc-SOCS1 (suppressor of cytokine signalling-1) (from UniProt O15524 1-211)

binding (GST-SOCS1 SH2 domain): binds | binding [3]: binds | binding [4]: binds
B1: Flag-CUEDC2 (in KG-1 cells) (protein, UniProt Q9H467 1-287)
chain: MELERIVSAALLAFVQTHLPEADLSGLDEVIFSYVLGVLEDLGPSGPSEENFDMEAFTEMMEAYVPGFAHIPRGTIGDMMQKLSGQLSDARNKENLQPQSSGVQGQVPISPEPLQRPEMLKEETRSSAAAAADTQDEATGAEEELLPGVDVLLEVFPTCSVEQAQWVLAKARGDLEEAVQMLVEGKEEGPAAWEGPNQDLPRRLRGPQKDELKSFILQKYMMVDSAEDQKIHRPMAPKEAPKKLIRYIDNQVVSTKGERFKDVRNPEAEEMKATYINLKPARKYRFH

binding [5]: no binding
B2: Flag-CUEDC2 (in HEK293T cells) (protein, UniProt Q9H467 1-287)
chain: MELERIVSAALLAFVQTHLPEADLSGLDEVIFSYVLGVLEDLGPSGPSEENFDMEAFTEMMEAYVPGFAHIPRGTIGDMMQKLSGQLSDARNKENLQPQSSGVQGQVPISPEPLQRPEMLKEETRSSAAAAADTQDEATGAEEELLPGVDVLLEVFPTCSVEQAQWVLAKARGDLEEAVQMLVEGKEEGPAAWEGPNQDLPRRLRGPQKDELKSFILQKYMMVDSAEDQKIHRPMAPKEAPKKLIRYIDNQVVSTKGERFKDVRNPEAEEMKATYINLKPARKYRFH
